Some of the results follow.
Tests used:
Experiment in all cases: glycan array binding signal (z-score within array); higher = stronger binding
Conditions in all cases: glycan notation: IUPAC condensed, linker removed
[1] = molecular target: Fuc(a1-2)Gal(b1-4)[Fuc(a1-3)]GlcNAc
Method in brief: (§1)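 The Consortium for Functional Glycomics database supplied 3228 glycan arrays, of which those lacking an available protein sequence were dropped. The binding signal, a within-array Z-score, was averaged across arrays of the same protein sequence and across linkers. Negative scores can be read as non-binding.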

[2] = molecular target: Fuc(a1-2)Gal(b1-4)[Fuc(a1-3)]GlcNAc(b1-2)Man(a1-3)[Fuc(a1-2)Gal(b1-4)[Fuc(a1-3)]GlcNAc(b1-2)Man(a1-6)]Man(b1-4)GlcNAc(b1-4)GlcNAc
Method in brief: as §1

[3] = molecular target: Fuc(a1-2)Gal(b1-4)[Fuc(a1-3)]GlcNAc(b1-2)[Fuc(a1-2)Gal(b1-4)[Fuc(a1-3)]GlcNAc(b1-4)]Man(a1-3)[Fuc(a1-2)Gal(b1-4)[Fuc(a1-3)]GlcNAc(b1-2)Man(a1-6)]Man(b1-4)GlcNAc(b1-4)GlcNAc
Method in brief: as §1

[4] = molecular target: Fuc(a1-2)Gal(b1-4)[Fuc(a1-3)]GlcNAc(b1-3)Gal(b1-4)[Fuc(a1-3)]GlcNAc
Method in brief: as §1

[5] = molecular target: Fuc(a1-2)Gal(b1-4)[Fuc(a1-3)]GlcNAc(b1-3)Gal(b1-4)[Fuc(a1-3)]GlcNAc(b1-3)Gal(b1-4)[Fuc(a1-3)]GlcNAc
Method in brief: as §1

[6] = molecular target: Fuc(a1-2)Gal(b1-4)[Fuc(a1-3)]GlcNAc(b1-3)GalNAc
Method in brief: as §1

[7] = molecular target: Fuc(a1-2)Gal6S(b1-4)Glc
Method in brief: as §1

[8] = molecular target: Fuc(a1-2)Gal6S(b1-4)Glc6S
Method in brief: as §1

[9] = molecular target: Fuc(a1-2)Gal6S(b1-4)GlcNAc
Method in brief: as §1

[10] = molecular target: Fuc(a1-2)[Gal(a1-3)]Gal
Method in brief: as §1

[11] = molecular target: Fuc(a1-2)[Gal(a1-3)]Gal(b1-3)GalNAc
Method in brief: as §1

[12] = molecular target: Fuc(a1-2)[Gal(a1-3)]Gal(b1-3)GlcNAc
Method in brief: as §1

[13] = molecular target: Fuc(a1-2)[Gal(a1-3)]Gal(b1-3)GlcNAc(b1-2)Man(a1-3)[Fuc(a1-2)[Gal(a1-3)]Gal(b1-3)GlcNAc(b1-2)Man(a1-6)]Man(b1-4)GlcNAc(b1-4)GlcNAc
Method in brief: as §1

[14] = molecular target: Fuc(a1-2)[Gal(a1-3)]Gal(b1-3)GlcNAc(b1-2)Man(a1-3)[Fuc(a1-2)[Gal(a1-3)]Gal(b1-3)GlcNAc(b1-2)Man(a1-6)]Man(b1-4)GlcNAc(b1-4)[Fuc(a1-6)]GlcNAc
Method in brief: as §1

[15] = molecular target: Fuc(a1-2)[Gal(a1-3)]Gal(b1-3)GlcNAc(b1-3)GalNAc
Method in brief: as §1

[16] = molecular target: Fuc(a1-2)[Gal(a1-3)]Gal(b1-4)Glc
Method in brief: as §1

[17] = molecular target: Fuc(a1-2)[Gal(a1-3)]Gal(b1-4)GlcNAc
Method in brief: as §1

[18] = molecular target: Fuc(a1-2)[Gal(a1-3)]Gal(b1-4)GlcNAc(b1-2)Man(a1-3)[Fuc(a1-2)[Gal(a1-3)]Gal(b1-4)GlcNAc(b1-2)Man(a1-6)]Man(b1-4)GlcNAc(b1-4)GlcNAc
Method in brief: as §1

[19] = molecular target: Fuc(a1-2)[Gal(a1-3)]Gal(b1-4)GlcNAc(b1-2)Man(a1-3)[Fuc(a1-2)[Gal(a1-3)]Gal(b1-4)GlcNAc(b1-2)Man(a1-6)]Man(b1-4)GlcNAc(b1-4)[Fuc(a1-6)]GlcNAc
Method in brief: as §1

[20] = molecular target: Fuc(a1-2)[Gal(a1-3)]Gal(b1-4)GlcNAc(b1-3)GalNAc
Method in brief: as §1

[21] = molecular target: Fuc(a1-2)[Gal(a1-3)]Gal(b1-4)[Fuc(a1-3)]Glc
Method in brief: as §1

[22] = molecular target: Fuc(a1-2)[Gal(a1-3)]Gal(b1-4)[Fuc(a1-3)]GlcNAc
Method in brief: as §1

[23] = molecular target: Fuc(a1-2)[Gal(a1-3)]Gal(b1-4)[Fuc(a1-3)]GlcNAc(b1-3)GalNAc
Method in brief: as §1

[24] = molecular target: Fuc(a1-2)[Gal(a1-4)]Gal(b1-4)GlcNAc
Method in brief: as §1

[25] = molecular target: Fuc(a1-2)[GalNAc(a1-3)]Gal
Method in brief: as §1

[26] = molecular target: Fuc(a1-2)[GalNAc(a1-3)]Gal(b1-3)GalNAc(a1-3)[Fuc(a1-2)]Gal(b1-4)GlcNAc
Method in brief: as §1

[27] = molecular target: Fuc(a1-2)[GalNAc(a1-3)]Gal(b1-3)GlcNAc
Method in brief: as §1

[28] = molecular target: Fuc(a1-2)[GalNAc(a1-3)]Gal(b1-3)GlcNAc(b1-2)Man(a1-3)[Fuc(a1-2)[GalNAc(a1-3)]Gal(b1-3)GlcNAc(b1-2)Man(a1-6)]Man(b1-4)GlcNAc(b1-4)GlcNAc
Method in brief: as §1

[29] = molecular target: Fuc(a1-2)[GalNAc(a1-3)]Gal(b1-3)GlcNAc(b1-2)Man(a1-3)[Fuc(a1-2)[GalNAc(a1-3)]Gal(b1-3)GlcNAc(b1-2)Man(a1-6)]Man(b1-4)GlcNAc(b1-4)[Fuc(a1-6)]GlcNAc
Method in brief: as §1

[30] = molecular target: Fuc(a1-2)[GalNAc(a1-3)]Gal(b1-3)GlcNAc(b1-3)GalNAc
Method in brief: as §1

B1: NanH (Corynebacterium diphtheriae), C6JSW6 (protein)
chain: MYSSNRTYSRAILGLSAVLTLSFTSLVAPVNAEEPETVVPATAELEGEVAATLPSAETGLLDAAPPKPVARGAAGDLQLPAVNEKEVFEEGRVIRAPEPDQSRCYRIPALVTAKNGDLLLAFDNRYGGGDGAKTWCRDAPYENMKRINRQNMQTDIQLYRSVDNGQSFEDFGYIAQGTADVRELSYTDPALVTDRTTGKIFAFFVRAYDYRVGQSSAGFNEGDVEAEIQKRDVQDTVVVESLDGGQTWGNMRLLSALTAKVSSISTGDTIFDGRGRFVTSGAGIQLQYGEHAGRLIVPISVDIDPKDSAKFINLAIYSDDHGQTWQAGIGTAGGAGFSGDVSKIVELSDGRLMMSSKDNDKPRWVSYSEDQGENWSTPKRKIIAPPQHPEKHNTGINVGLIRAYPNAPENSAAARVLLYSAPIDQRYSHKHTEDGRNNGWVMGSCDDGKTWSFGRQIEKNRFQYSSMTVMSDGNIGMVYESGDFSTGMNLKFAKFNMAWLGADCHSNEALGLTGDIDKEIVEAQEKAAEATKEAQEAAEKVQKLTEELAAARKENDELKNQVKGFKEAVGDLANEAEDLADKVFKLETAVTEAKEKATVAEKAASDAVTQLQKAESIAEEQKAKAESAAAEAQALREKLERLEGSILTVKENPEAEEIADLSSTAKDAADAARRAATDANGALSGQKQDEEKPAMGLMGILKVLAGIIPLVAIIATIFQTFRLPFNIPGMR
glycan array binding signal (z-score) [1]: -0.122
glycan array binding signal (z-score) [2]: 0.226
glycan array binding signal (z-score) [3]: 0.792
glycan array binding signal (z-score) [4]: -1.29
glycan array binding signal (z-score) [5]: 1.1
glycan array binding signal (z-score) [6]: 3.22
glycan array binding signal (z-score) [7]: -0.89
glycan array binding signal (z-score) [8]: -1.36
glycan array binding signal (z-score) [9]: 0.001
glycan array binding signal (z-score) [10]: -0.268
glycan array binding signal (z-score) [11]: 0.386
glycan array binding signal (z-score) [12]: 0.503
glycan array binding signal (z-score) [13]: -0.686
glycan array binding signal (z-score) [14]: 1.3
glycan array binding signal (z-score) [15]: -1.14
glycan array binding signal (z-score) [16]: -0.381
glycan array binding signal (z-score) [17]: -1.05
glycan array binding signal (z-score) [18]: 0.948
glycan array binding signal (z-score) [19]: 0.176
glycan array binding signal (z-score) [20]: -1.18
glycan array binding signal (z-score) [21]: 0.259
glycan array binding signal (z-score) [22]: 0.379
glycan array binding signal (z-score) [23]: -0.377
glycan array binding signal (z-score) [24]: 0.211
glycan array binding signal (z-score) [25]: -1.21
glycan array binding signal (z-score) [26]: -0.631
glycan array binding signal (z-score) [27]: 0.578
glycan array binding signal (z-score) [28]: -0.95
glycan array binding signal (z-score) [29]: 0.495
glycan array binding signal (z-score) [30]: 1.12

Source: the supplement of paper PMC8728848
